Laboratory results taken from paper PMC4063736.

T1: LpoA-His6 expressed from the chromosome (Vibrio cholerae) (UniProt Q9KUE0)
T1 sequence: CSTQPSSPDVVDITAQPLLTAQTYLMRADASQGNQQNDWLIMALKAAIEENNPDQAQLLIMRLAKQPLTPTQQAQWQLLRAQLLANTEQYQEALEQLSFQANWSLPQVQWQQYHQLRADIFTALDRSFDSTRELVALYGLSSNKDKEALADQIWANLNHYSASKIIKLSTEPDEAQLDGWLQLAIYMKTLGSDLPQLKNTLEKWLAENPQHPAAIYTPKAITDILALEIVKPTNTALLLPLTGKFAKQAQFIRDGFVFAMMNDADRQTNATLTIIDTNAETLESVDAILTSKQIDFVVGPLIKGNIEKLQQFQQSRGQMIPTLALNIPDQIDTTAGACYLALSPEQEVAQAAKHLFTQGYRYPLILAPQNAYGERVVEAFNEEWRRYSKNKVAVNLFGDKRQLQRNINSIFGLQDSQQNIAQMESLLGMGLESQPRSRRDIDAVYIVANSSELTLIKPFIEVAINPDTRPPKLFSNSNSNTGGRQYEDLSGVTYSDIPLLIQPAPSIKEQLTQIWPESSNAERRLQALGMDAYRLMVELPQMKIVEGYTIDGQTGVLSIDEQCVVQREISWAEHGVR

B1: PBP1A (endogenous, V. cholerae) (enzyme, UniProt Q9KNU5 1-825)
chain: MKFIKRLLVFSLICIILGVTTIFGFYFYVKSDLPDVATLRDVQLQTPMQVFSQDGKLIAQFGEKRRIPLKLEEMPKELIEAVIATEDSRYYEHYGFDPIGITRAAFAVLASGSASQGASTITQQLARNFFLSNEKKVMRKVKEIFIAIHIEQLLSKQEILELYLNKIYLGYRSYGVGAAAQAYFGKEVKDLTLGEIALIAGLPKAPSTMNPIYSVERATNRRNVVLQRMLDEKYITKAEYDAARAEPVLPKYHGAEIELNAPYVAEIARAWMVERYGEEAAYTSGMNVYTTVDSKLQRAANQAAINNLLAYDERHGYRGAEKELWQVNQPAWSSTQLSEYLSNEPTYGDMFPAAVLSVEEKSAQVWVKSYGVQTIAWEDMNWARRFINDDRQGPLPKSANEFLAAGQQIWVRPRTQDGAITAWKLTQVPNANTAFVAMNPENGAVTALVGGFNFVHNKFNRATQSVRQVGSSIKPFIYSAALNKGLTLATLINDAPINQWDESQGTAWRPKNSPPTYTGPTRLRIGLAQSKNVMAVRVLREVGLDETREYLTRFGFKLDQLPRSETIALGAGSLTPVQMAQGFSVFANNGYFVEPFYISRVENPFGNIEFSAEPKVVCHRECSSELDEFAEQDAASPYAPKVISEQNAFLTREMLYSNIWGGGEWSSDTGWNGTGWRAQALKRRDIGGKTGTTNDSKDAWYNGYAPGIVGVAWVGFDDHSRNLGKTAPNRNIEDDVSGAESGGKTALPAWVEFMSLALQDVPVQQKAVPNNIARVRIDRDTGLLTNKLDSSSMFEYFEAGTEPTEYVSEHVNESIYSTSSGEELF
B2: LpoA (endogenous, V. cholerae) (protein, UniProt Q9KUE0 27-603)
chain: T1 sequence

Columns and labels:
[1] = biological target: T1, LpoA-His6 expressed from the chromosome (Vibrio cholerae); assay: affinity purification with mass spectrometry
[2] = biological target: 6x His-tagged CsiV expressed from its native chromosomal location (Vibrio cholerae); assay: affinity purification with mass spectrometry

Molecule | binding [1] | binding [2]
CsiV (endogenous, V. cholerae) | binds | 
B1 | no binding | no binding
B2 |  | binds

No constants are given. Whether binding was seen depends on the method and setting. Binding seen in cells or lysates may run through a third protein. These calls come from enrichment with a bait or labelling near it, and not all partners need be listed. A no says only that the protein was not detected with the bait. For some of these results: Where a sequence is shown, tags or fusion partners need not be part of it.
